Experimental data taken from PubChem BioAssay AID2685 (National Center for Advancing Translational Sciences (NCATS), 2010).
The list shows a part of the results. The main result of the screen is listed elsewhere. These columns were measured beside it and carry no call. Compounds called inactive in the main read-out are mostly missing here. Words in brackets tell the shape of the fitted curve; partial curves, single points and poor fits give uncertain potencies.

Assay: qHTS Assay for Lipid Storage Modulators in Drosophila S3 Cells;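 as to cell number change: cells counted by Cell Tracker Red CMTPX staining in the red channel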
Settings: BODIPY lipid droplet fluorescence, 18-24 h; for cell number change: measured here: cell count max response, cells fed with added oleic acid
Summary of the method: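 Drosophila S3 cells got compounds at several concentrations plus oleic acid (400 uM solution). Laser-scanning cytometry with 488 nm excitation read lipid droplets at 500-530 nm and cells at 575-640 nm. Percent activity was relative to 20 uM Triacsin C.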

[1] = measured here: lipid fluorescence (Fed channel) AC50, cells fed with added oleic acid
[2] = measured here: cell number channel AC50, cells fed with added oleic acid

SMILES	cell number change [%]	AC50 [1]	AC50 [2]
Cc1ccc(C)c(NC2=NS(=O)(=O)c3ccccc32)c1	3.24	–	–
COCCn1c(C)cc(C(=O)COC(=O)c2ccc[nH]c2=O)c1C	-5.34	–	–
Cc1[nH][nH]c(=O)c1C(c1c(C)[nH][nH]c1=O)c1cn(Cc2ccccc2Cl)c2ccccc12	1.85	0.206 µM [rising, full curve, poor fit]	–
c1ccc(OCCOc2ncnc3sccc23)cc1	–	0.103 µM [falling, full curve, poor fit]	–
CN(C)S(=O)(=O)Oc1cccc(C(=O)Nc2ccc(Cl)cc2)c1	15.9	11.6 µM [falling, single point]	–
CN(CC(=O)NC1CCCc2ccccc21)S(=O)(=O)c1ccc2c(c1)c(=O)n(C)c(=O)n2C (configuration not stated)	–	6.51 µM [rising, single point]	6.51 µM [rising, single point]
N#Cc1ccccc1NC(=O)CC1CCCCC1	30.5	–	–
COc1cc(C(=O)NC(=S)Nc2ccc3oc(=O)ccc3c2)cc(OC)c1OC	-16	–	–
COc1ccc(/C=C2\SC(=S)N(C(C)C(=O)NC3C=CS(=O)(=O)C3)C2=O)cc1 (configuration not stated)	1.91	29.1 µM [rising, single point]	–
O=C(CCS(=O)(=O)c1ccccc1)N(CCCN1CCOCC1)c1nc2ccccc2s1	-45.4	–	20.6 µM [falling, partial curve, poor fit]
COc1cccc(NC(=O)CN(C)C(=O)c2ccc(NS(=O)(=O)c3ccc(F)cc3)cc2)c1	-3.61	0.103 µM [falling, full curve, poor fit]	–
CC(=O)N1CCC(C(=O)OCc2ccc(Cl)cc2)(c2ccccc2)CC1	-11.1	3.66 µM [falling, single point]	–
COc1ccc(CN2CCN(CC(=O)Nc3ccccc3C(=O)NC3CC3)CC2)cc1F	-8.02	6.51 µM [rising, single point]	–
COC(=O)CC1Nc2ccccc2SC1=O (configuration not stated)	-101	6.51 µM [falling, single point]	32.6 µM [falling, single point]
COc1ccc(/C=N/NC(=O)c2nnn(-c3nonc3N)c2-c2cccc(OC)c2)cc1	11.6	8.2 µM [rising, partial curve]	–
CC(=O)Nc1ccc(S(=O)(=O)Nc2ccc3c(c2)n(C)c(=O)n3C)c(C)c1	29	–	–
Cc1ccc(OC(C)C(=O)Nc2ccc(S(=O)(=O)Nc3nccs3)cc2)cc1 (configuration not stated)	-4.7	0.58 µM [falling, single point]	–
C[C@H]1CN=C(N(C)C)N1CCC1CCCCC1	13.1	0.731 µM [rising, full curve, poor fit]	–
CCC(C)n1c(-c2cccc(S(=O)(=O)N3CCOCC3)c2)n[nH]c1=S (configuration not stated)	-3.31	29.1 µM [rising, partial curve]	–

SMILES	cell number change [%]	AC50 [1]	AC50 [2]
Clc1ccccc1-c1nnn(Cc2ccc(-c3nn[nH]n3)cc2)n1	-5.17	0.13 µM [falling, full curve, poor fit]	–
O=C(Cc1cccs1)N1CCC(c2nc3c(nnn3Cc3ccccc3)c(=O)[nH]2)CC1	-21.9	0.82 µM [rising, full curve, poor fit]	–
COC(=O)c1ccc(NC(=O)CSc2nc3ccccc3c(=O)[nH]2)cc1	67.3	2.91 µM [rising, partial curve]	3.66 µM [rising, full curve]
c1ccc(CSc2nnc3ccc(-c4ccncc4)nn23)cc1	-29	29.1 µM [falling, single point]	3.66 µM [falling, full curve, poor fit]
CCN(CC)S(=O)(=O)c1cnccc1N1CCN(c2cccc(Cl)c2)CC1	6.26	1.46 µM [rising, full curve]	–
NS(=O)(=O)c1cc(C(=O)OCC(=O)Nc2ccc(N3CCCCC3)cc2)ccc1Cl	27.1	6.51 µM [falling, single point]	–
Cc1cccc(N2N=C(C(=O)Nc3ccc(Cl)c(S(=O)(=O)N4CCOCC4)c3)CCC2=O)c1	-9.27	29.1 µM [falling, single point]	–
CCCCNS(=O)(=O)c1ccc(NC(=O)C2CCCO2)cc1 (configuration not stated)	1.1	0.92 µM [rising, full curve, poor fit]	–
Cc1c(C(=O)NC2CCN(Cc3ccccc3)C2)oc2c(Cl)cccc12 (configuration not stated)	42.2	0.58 µM [falling, single point]	29.1 µM [rising, single point]
O=C(CSc1nnc(NC(=O)Cc2ccccc2)s1)NCc1ccco1	-30	–	–
COc1ccc(-n2nc(C(=O)NCC(=O)N3CCCC(C)C3)c3ccccc3c2=O)cc1Cl (configuration not stated)	-31.7	–	29.1 µM [falling, single point]
Fc1cccc(CSc2ccc(-c3ccc4c(c3)OCO4)nn2)c1	-0.569	0.0058 µM [rising, full curve, poor fit]	–
COc1cc(C=O)c(Br)cc1OCc1ccc(C)cc1	-17.4	–	0.82 µM [rising, single point]
O=C(COc1ccccc1Cl)Nc1cccnc1	13.9	6.51 µM [rising, full curve, poor fit]	–
CNc1c(NS(=O)(=O)c2cc(NC(C)=O)ccc2C)c(=O)oc2ccccc12	-6.76	–	–
O=C(NC1CCCc2ccccc21)C1CCCO1 (configuration not stated)	18.5	0.146 µM [falling, full curve, poor fit]	–
O=C(NCCC1=CCCCC1)C1CCN(S(=O)(=O)c2ccccc2C(F)(F)F)CC1	219	–	20.6 µM [rising, single point]
CCOC(=O)CCCCC(=O)c1[nH]c(=O)[nH]c1CSc1nc(C)cc(=O)[nH]1	8.09	0.0058 µM [rising, full curve, poor fit]	–
CCN1CCN(c2cc(N3CCN(C(=O)c4ccco4)CC3)c3c4c(onc24)-c2ccccc2C3=O)CC1	-35.8	–	8.2 µM [falling, full curve, poor fit]

Two compounds picked at random from those above:
SMILES	cell number change [%]	AC50 [1]	AC50 [2]
COc1cc(C=O)c(Br)cc1OCc1ccc(C)cc1	-17.4	–	0.82 µM [rising, single point]
Fc1cccc(CSc2ccc(-c3ccc4c(c3)OCO4)nn2)c1	-0.569	0.0058 µM [rising, full curve, poor fit]	–
